Source: PubChem BioAssay AID1259254 (NCATS, 2017)
The whole screen tested about 59,000 reagents; this is a random part of them. About 1,550 of all reagents (2.6%) were called active. 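G2 share is only a proxy for re-replication; each gene was hit by three separate siRNAs, and active genes were retested.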 The numbers tell different reagents against one gene apart. Further read-outs or replicates are left out here. Not stated in the record: the amount of reagent.

- Screen: 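Genome-wide screen for genes that prevent DNA re-replication in cancer cells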 (primary screen)
- Cell system: human HCT116 colorectal cancer cells
- Reagent: single siRNA against human genes
- Time to read-out: 3 days
- Detection: 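Imaged Hoechst DNA stain sorts each cell into a cycle phase by DNA amount; per plate, G2 fraction set to 0% for non-targeting and 100% for GMNN siRNA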
- Scale: G2 robust z-score and G2 cells, % of GMNN control: higher = more G2 cells, more excess DNA replication
- Hit rule: 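Active siRNAs have a G2 robust z of 5 or more median absolute deviations over the median, which in these data means about 38% or higher of GMNN control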

CDK17 (GeneID 5128) #1 scored G2 robust z-score 1.36; G2 cells, % of GMNN control 12.5; inactive.
After knock-down of CDK17 (GeneID 5128) #2 the results were G2 robust z-score -0.797; G2 cells, % of GMNN control -2.64; inactive.
Depletion of CDK17 (GeneID 5128) #3 came out at: G2 robust z-score -1.11; G2 cells, % of GMNN control -4.83; inactive.
With knock-down of NYX (GeneID 60506) #1, the screen gave G2 robust z-score -1.3; G2 cells, % of GMNN control -6.21; inactive.
Depletion of NYX (GeneID 60506) #2 gave: G2 robust z-score -0.486; G2 cells, % of GMNN control -0.455; inactive.
After knock-down of NYX (GeneID 60506) #3 the results were G2 robust z-score -0.98; G2 cells, % of GMNN control -3.93; inactive.
For SYNCRIP (GeneID 10492) #1, the values are G2 robust z-score -0.765; G2 cells, % of GMNN control -2.41; inactive.
Knock-down of SYNCRIP (GeneID 10492) #2 gave: G2 robust z-score -0.826; G2 cells, % of GMNN control -2.85; inactive.
For SYNCRIP (GeneID 10492) #3, the values are G2 robust z-score -0.83; G2 cells, % of GMNN control -2.87; inactive.

Laid out differently: 3 of the entries above
CDK17 (GeneID 5128) #3
- G2 robust z-score: -1.11
- G2 cells, % of GMNN control: -4.83
- Call: inactive

NYX (GeneID 60506) #1
- G2 robust z-score: -1.3
- G2 cells, % of GMNN control: -6.21
- Call: inactive

NYX (GeneID 60506) #2
- G2 robust z-score: -0.486
- G2 cells, % of GMNN control: -0.455
- Call: inactive

Continued:
After knock-down of THOC2 (GeneID 57187) #1, the screen gave G2 robust z-score -0.0916; G2 cells, % of GMNN control 2.32; inactive.
After knock-down of THOC2 (GeneID 57187) #2, the screen gave G2 robust z-score 0.247; G2 cells, % of GMNN control 4.7; inactive.
After knock-down of THOC2 (GeneID 57187) #3, the record shows G2 robust z-score -0.802; G2 cells, % of GMNN control -2.68; inactive.
Against TH (GeneID 7054) #1, the values are G2 robust z-score -0.312; G2 cells, % of GMNN control 0.77; inactive.
Against TH (GeneID 7054) #2, the values are G2 robust z-score 2.95; G2 cells, % of GMNN control 23.7; inactive.
Knock-down of TH (GeneID 7054) #3 gave: G2 robust z-score -0.6; G2 cells, % of GMNN control -1.25; inactive.
With knock-down of NOL4L (GeneID 140688) #1 the results were G2 robust z-score 0.519; G2 cells, % of GMNN control 6.62; inactive.
With knock-down of NOL4L (GeneID 140688) #2, the record shows G2 robust z-score 1.67; G2 cells, % of GMNN control 14.7; inactive.
With knock-down of NOL4L (GeneID 140688) #3, the record shows G2 robust z-score 1.53; G2 cells, % of GMNN control 13.7; inactive.
For SKA2P1 (GeneID 729012) #1, the values are G2 robust z-score 0.456; G2 cells, % of GMNN control 6.18; inactive.
Knock-down of SKA2P1 (GeneID 729012) #2 resulted in: G2 robust z-score 0.174; G2 cells, % of GMNN control 4.19; inactive.
Depletion of SKA2P1 (GeneID 729012) #3 came out at: G2 robust z-score -0.789; G2 cells, % of GMNN control -2.58; inactive.
Silencing of LEUTX (GeneID 342900) #1 came out at: G2 robust z-score 2.75; G2 cells, % of GMNN control 22.3; inactive.
Silencing of LEUTX (GeneID 342900) #2 resulted in: G2 robust z-score -0.055; G2 cells, % of GMNN control 2.58; inactive.
After knock-down of LEUTX (GeneID 342900) #3 the results were G2 robust z-score 0.0693; G2 cells, % of GMNN control 3.45; inactive.
